Reference: paper PMC11427100
No constants are given. Whether binding was seen depends on the method and setting. In cells and extracts the contact can be indirect. These calls come from enrichment with a bait or labelling near it, and not all partners need be listed. Sequences can lack the tags named with a protein.

By UniProt entry, the sequences of proteins in these tests, tags left out.
UniProt Q6R891: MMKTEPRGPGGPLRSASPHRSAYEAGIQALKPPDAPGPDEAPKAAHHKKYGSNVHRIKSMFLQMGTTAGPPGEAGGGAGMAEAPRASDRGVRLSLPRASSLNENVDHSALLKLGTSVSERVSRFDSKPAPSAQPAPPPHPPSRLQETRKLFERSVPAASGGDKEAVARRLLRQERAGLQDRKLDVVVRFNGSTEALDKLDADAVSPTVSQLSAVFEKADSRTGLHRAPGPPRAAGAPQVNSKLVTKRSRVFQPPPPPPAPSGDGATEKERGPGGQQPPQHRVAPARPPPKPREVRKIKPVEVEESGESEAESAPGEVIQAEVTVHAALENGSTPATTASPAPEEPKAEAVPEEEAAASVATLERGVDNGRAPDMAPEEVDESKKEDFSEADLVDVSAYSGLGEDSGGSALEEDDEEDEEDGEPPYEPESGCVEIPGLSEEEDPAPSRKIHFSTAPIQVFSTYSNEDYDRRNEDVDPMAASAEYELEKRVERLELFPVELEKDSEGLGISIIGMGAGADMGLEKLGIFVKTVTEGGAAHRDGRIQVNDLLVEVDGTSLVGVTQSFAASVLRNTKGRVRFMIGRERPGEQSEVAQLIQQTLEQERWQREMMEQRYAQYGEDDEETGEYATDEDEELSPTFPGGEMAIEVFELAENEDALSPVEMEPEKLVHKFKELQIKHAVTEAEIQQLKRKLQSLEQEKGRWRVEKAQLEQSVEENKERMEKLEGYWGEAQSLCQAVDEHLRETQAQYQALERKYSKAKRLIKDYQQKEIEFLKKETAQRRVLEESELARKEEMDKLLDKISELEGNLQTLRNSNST

biological target: Spinophilin (mouse (endogenous in pancreas and isolated islets)) (UniProt Q6R891); test: affinity purification with mass spectrometry; spinophilin immunoprecipitated from pancreas of WT chow-fed, WT high-fat diet-fed and Spino^-/- high-fat diet-fed male mice; on-bead digestion, TMT10plex; hits filtered by WT/KO log2 fold-enrichment of 0.5 and two unique peptides, listed hits increased in HFF vs. lean

Binder	binding
Cysteine and glycine-rich protein 1 (protein, UniProt P97315 1-193) MPNWGGGKKCGVCQKTVYFAEEVQCEGNSFHKSCFLCMVCKKNLDSTTVAVHGEEIYCKSCYGKKYGPKGYGYGQGAGTLSTDKGESLGIKHEEAPGHRPTTNPNASKFAQKIGGSERCPRCSQAVYAAEKVIGAGKSWHKSCFRCAKCGKGLESTTLADKDGEIYCKGCYAKNFGPKGFGFGQGAGALVHSE	binds
Perilipin-4 (protein, UniProt O88492 1-1403) MSASGDGTRVPPKSKGKTLSSFFGSLPGFSSARNLVSHTHSSTSTKDLQTATDPSGTPAPSSKVSTNSQMAGDAAGLLQPSEQTAGDKDMGSFSVTSSEDAFSGVFGIMDAAKGMVQGGLGATQSALVGTKEAVSGGVMGAVGVAKGLVKGGLDTSKNVLTNTKDTVTTGVMGAANMAKGTVQTGLDTTKSVVMGTKDTVATGLAGAVNVAKGTIQGGLDTTKSVVMGTKDTVTTGLTGAVNVAKGVVQGGLDTTKSVVMGTKDTVTTGLTGAMNVAKGTAQMGIDTSKTVLTGTKDTVCAGATGAINVAKGAAQGGLDTTKSVLIGTKDTVTTGLTGAVNVAKGAVQGGLDTTKSVVMGTKDTVTTGLTGAMNVAKGTAQMGLGTSKTVLTGTKDTVCAGLTGAINVAKGAAQGGLDTTKSVLMGTKDTVTTGLTGAVNVAKGTIQGGLDTTKSVVMGTKDTVTTGLTGAVNVAKGTIQGGLDTTKSVVMGTKDTVTTGLTGAVNVAKGAAQGGLDTTKSVVMGTKDTVTTGLTGAMNVAKGTAQMGLGTSKTVLTGTKDTVCAGLTGAINVAKGAAQGGLDTTKSVLMGTKDTVTTGLTGAVNVAKGTIQGGLDTTKSVVMGTKDTVTTGLTGAVNVAKGAVQGGLDTTKSVVMGTKDTVTTGLTGALNVAKGTAQMGIDTSKTVLIGTKDTVCAGATGAINMAKGAAQGGLDTTKSVLMGTKDTVTTGLTGAINVAKGSAQGGLDTTKSVLIGTKDTVTTGLTGALNVAKGTVQTGLDTSQRVLTGTKDNVYAGVTGAVNVAKGTIQGGLDTTKSVVMGTKDTVTTGLTGAVNVAKGAVQGGLDTTKSVVMGTKDTVTTGLTGAMNVAKGTAQMGIDTSKTVLTGTKDTVCAGLTGAINVAKGATQGGLDTTKSVLMGTKDTVTTGLTGAINVAKGAAQGGLDTTKSVLLGTKDTVTTGLTGAANVAKETVQMGLDTSKNILMDTKDSICAGATGAITVVKGAAQGGLDTSNAALTGTMDTAKGTVQTSLDTSKHMLIGMKDTVCAGVTSAMNMAKGIHKNTDTTRDTQSSVLAHSGNVATNAIHTGVHTVPSSLSGSHSIICHEPSIYRATNHGVGQAILTSTESLCCETSSFSDKYGLGHVTEPRADTKTLVSGMASSACAATRSVEECGQLAATGFAALPDELKGLGDIFQPMTTEEQAQLAVSESGPRVLSADRGSYYIRLGDLAPSFRQRAFEHALSHIQHNQFQARAALAQLQEAFQMTDMTMEAACGKLCSDQSLNTMVEAVGSHEMRASVAQDRLCTLAHQLHAAYSSLVTSLQGLPEVQQQAGQARHSLCKLYGLVSSEAGSELQTEQLAQSSAGVVEAWQGLEVLLEKLQQNPPLSWLVGPFTSMPCGQL	binds
Collagen α-2 (VI) chain (protein, UniProt Q02788 26-1034) QQQEAISPQEQEAVSPDISTTERNNNCPEKADCPVNVYFVLDTSESVAMQSPTDSLLYHMQQFVPQFISQLQNEFYLDQVALSWRYGGLHFSDQVEVFSPPGSDRASFTKSLQGIRSFRRGTFTDCALANMTQQIRQHVGKGVVNFAVVITDGHVTGSPCGGIKMQAERAREEGIRLFAVAPNRNLNEQGLRDIANSPHELYRNNYATMRPDSTEIDQDTINRIIKVMKHEAYGECYKVSCLEIPGPHGPKGYRGQKGAKGNMGEPGEPGQKGRQGDPGIEGPIGFPGPKGVPGFKGEKGEFGSDGRKGAPGLAGKNGTDGQKGKLGRIGPPGCKGDPGSRGPDGYPGEAGSPGERGDQGAKGDSGRPGRRGPPGDPGDKGSKGYQGNNGAPGSPGVKGGKGGPGPRGPKGEPGRRGDPGTKGGPGSDGPKGEKGDPGPEGPRGLAGEVGSKGAKGDRGLPGPRGPQGALGEPGKQGSRGDPGDAGPRGDSGQPGPKGDPGRPGFSYPGPRGTPGEKGEPGPPGPEGGRGDFGLKGTPGRKGDKGEPADPGPPGEPGPRGPRGIPGPEGEPGPPGDPGLTECDVMTYVRETCGCCDCEKRCGALDVVFVIDSSESIGYTNFTLEKNFVINVVNRLGAIAKDPKSETGTRVGVVQYSHEGTFEAIRLDDERVNSLSSFKEAVKNLEWIAGGTWTPSALKFAYNQLIKESRRQKTRVFAVVITDGRHDPRDDDLNLRALCDRDVTVTAIGIGDMFHETHESENLYSIACDKPQQVRNMTLFSDLVAEKFIDDMEDVLCPDPQIVCPELPCQTELYVAQCTQRPVDIVFLLDGSERLGEQNFHKVRRFVEDVSRRLTLARRDDDPLNARMALLQYGSQNQQQVAFPLTYNVTTIHEALERATYLNSFSHVGTGIVHAINNVVRGARGGARRHAELSFVFLTDGVTGNDSLEESVHSMRKQNVVPTVVAVGGDVDMDVLTKISLGDRAAIFREKDFDSLAQPSFFDRFIRWIC	binds
CUB and zona pellucida-like domain-containing protein 1 (protein, UniProt P70412 20-607) QLNSTEAEGKSRCTASLGGANLGETHKALVLQLSANENCTWTIERPENRSIRIIFSYIKLDPGSRCETENIKVFDGSSTSGPLLGKACSRNDFVPVFESSSNSMTFQIVTGLTKFPRSVFIFYYFFSAATVIPNCGGDLRALEGSFSSPNYPKPHPELAYCVWHIQVGKGYKIQLKFTDLLLEMDENCKFDFIAVYDGPSTTAGLLKQLCGRGKPTLESSSDAMTVVLSTDYANSYKGFSASYTSIYIHDVNTTSLSCVSDKMRVIISKSYLPALNYNESNLQLNDPTCRPNVSNVIEFSIPLHECGTVKKIEDHAISYTNRITFIESPVSAVITRQKLLQIVVTCEMEYNSTVEIMYITEDDIIQNQSVLGKYNTSLALYESDSFENLVQESPYYVDLNQTLFVQATLHTSDPSLVVFLDTCRASPTSDFASPTYDLISSGCCQDETCKVYPLFGHYGRFQFNAFKFLKHLNSVYLKCKILICDNNDQTSRCNQGCVPRRKRDIPSYKWKTDSVIGPIRLKRDRSASRDSGLLPQIHEAEISNQPLSRLYLFSFMVLALNVVIVAITTVKHFLNRWMDHRYQKLQVY	binds
Destrin (protein, UniProt Q9R0P5 1-165) MASGVQVADEVCRIFYDMKVRKCSTPEEIKKRKKAVIFCLSADKKCIVVEEGKEILVGDVGATITDPFKHFVGMLPEKDCRYALYDASFETKESRKEELMFFLWAPEQAPLKSKMIYASSKDAIKKKFPGIKHEYQANGPEDLNRTCIAEKLGGSLIVAFEGSPV	binds
Perilipin-1 (protein, UniProt Q8CGN5 1-517) MSMNKGPTLLDGDLPEQENVLQRVLQLPVVSGTCECFQKTYNSTKEAHPLVASVCNAYEKGVQGASNLAAWSMEPVVRRLSTQFTAANELACRGLDHLEEKIPALQYPPEKIASELKGTISTRLRSARNSISVPIASTSDKVLGATLAGCELALGMAKETAEYAANTRVGRLASGGADLALGSIEKVVEFLLPPDKESAPSSGRQRTQKAPKAKPSLVRRVSTLANTLSRHTMQTTAWALKQGHSLAMWIPGVAPLSSLAQWGASAAMQVVSRRQSEVRVPWLHNLAASQDESHDDQTDTEGEETDDEEEEEESEAEENVLREVTALPNPRGLLGGVVHTVQNTLRNTISAVTWAPAAVLGTVGRILHLTPAQAVSSTKGRAMSLSDALKGVTDNVVDTVVHYVPLPRLSLMEPESEFRDIDNPSAEAERKGSGARPASPESTPRPGQPRGSLRSVRGLSAPSCPGLDDKTEASARPGFLAMPREKPARRVSDSFFRPSVMEPILGRAQYSQLRKKS	binds

Second part, the binder after the results:

binding	Binder
binds	Protein Myl12a (protein, UniProt Q6ZWQ9 1-172) MSSKRAKTKTTKKRPQRATSNVFAMFDQSQIQEFKEAFNMIDQNRDGFIDKEDLHDMLASMGKNPTDEYLDAMMNEAPGPINFTMFLTMFGEKLNGTDPEDVIRNAFACFDEEAIGTIQEDYLRELLTTMGDRFTDEEVDELYREAPIDKKGNFNYIEFTRILKHGAKDKDD
binds	Ribosome biogenesis regulatory protein homolog (protein, UniProt Q9CYH6 1-365) MEGQRVEELLAKAEQEEAEKLQRITVHKELELEFDLGNLLASDRNPPTVLRQAGPSPEAELRALARDNTQLLINQLWRLPTERVEEAVVARLPEPATRLPREKPLPRPRPLTRWQQFARLKGIRPKKKTNLVWDEASGQWRRRWGYKRARDDTKEWLIEVPGSADPMEDQFAKRTQAKKERVAKNELNRLRNLARAHKMQMPSSAGLHPTGHQSKEELGRAMQVAKVSTASVGRFQERLPKEKAPRGSGKKRKFQPLFGDFAAEKKNQLELLRVMNSKKPRLDVTRATNKQMREEDQEEAAKRRKMSQKGKRKGGRQGPSGKRKGGPPGQGEKRKGGLGSKKHSWPSALAGKKKGVPPQGGKRRK
binds	Tropomodulin-3 (protein, UniProt Q9JHJ0 1-352) MALPFRKDLGDYKDLDEDELLGKLSESELKQLETVLDDLDPENALLPAGFRQKNQTSKSATGPFDRERLLSYLEKQALEHKDRDDYVPYTGEKKGKIFIPKQKPAQTLTEETISLDPELEEALTSASDTELCDLAAILGMHNLIADTPFCDVLGSSNGVNQERFPNVVKGEKILPVFDEPPNPTNVEESLKRIRENDARLVEVNLNNIKNIPIPTLKDFAKTLEANTHVKHFSLAATRSNDPVAVAFADMLKVNKTLKSLNMESNFITGAGVLALIDALRDNETLMELKIDNQRQQLGTSVELEMAKMLEENTNILKFGYQFTQQGPRTRAANAITKNNDLVRKRRIEGDHQ
binds	α-2-HS-glycoprotein (protein, UniProt P29699 19-345) APQGTGLGFRELACDDPEAEQVALLAVDYLNNHLLQGFKQVLNQIDKVKVWSRRPFGVVYEMEVDTLETTCHALDPTPLANCSVRQLTEHAVEGDCDFHILKQDGQFRVMHTQCHSTPDSAEDVRKLCPRCPLLTPFNDTNVVHTVNTALAAFNTQNNGTYFKLVEISRAQNVPLPVSTLVEFVIAATDCTAKEVTDPAKCNLLAEKQHGFCKANLMHNLGGEEVSVACKLFQTQPQPANANAVGPVPTANAALPADPPASVVVGPVVVPRGLSDHRTYHDLRHAFSPVASVESASGETLHSPKVGQPGAAGPVSPMCPGRIRHFKI
binds	Ribonuclease pancreatic (protein, UniProt P00683 26-149) RESAAQKFQRQHMDPDGSSINSPTYCNQMMKRRDMTNGSCKPVNTFVHEPLADVQAVCSQENVTCKNRKSNCYKSSSALHITDCHLKGNSKYPNCDYKTTQYQKHIIVACEGNPYVPVHFDATV
